No constants are given. Whether binding was seen depends on the method and setting. Some entries that bind do so weakly or less than the wild type. Sequences can lack the tags named with a protein.
Target: BT549
Assay: flow cytometry on BT549 cells (DDR1 low/DDR2 high), percent 9H-1-binding cells at 0.1, 0.5, 1.0, 10.0 and 100.0 µg/mL 9H-1

binding: binds
B1: 9H-1 (humanized DDR1-9, WT IgG1 Fc) (antibody, V domains shown)
VH: QVQLVESGGRVVQPGRSLRLSCTASGFSLNRYYMLWVRQAPGKGLEWIGTISYGDTTYYASWAKGRFTISRDNSKNTLYLQMNSLRAEDTAVYYCARADTGDNGYLGLQLWGQGTLVTVSS
VL: DIQMTQSPSSVSASVGDRVTITCQASQSIGSVLAWYQQKPGKAPKLLISGVFDLASGVPSRFSGSGSGTDFTLTISSLQPEDFATYYCQYIPYGSSPFGGGTKVEIKR
notes: In some embodiments the heavy chain lacks the terminal lysine; also called PRTH-101; humanized DDR1-9 (9H-1)_1 WT IgG1 Fc
